Assay [1] deals with recombinant full-length His6-TBC1D4 (nonphosphorylated) (mouse) (UniProt Q8BYJ6). Nature of the assay: SEC; purified TBC1D4 on an ENrich SEC650 column, 50 mM Tris-HCl pH 7.5, 1 ml/min; apparent Mr from standards; both purified. (In general: SEC sorts molecules by how far they enter the pores of the column.)
Assay [2] concerns the target T1, HA-TBC1D4 construct C1 (Met1-Leu478) (mouse) (UniProt Q8BYJ6).
T1 sequence: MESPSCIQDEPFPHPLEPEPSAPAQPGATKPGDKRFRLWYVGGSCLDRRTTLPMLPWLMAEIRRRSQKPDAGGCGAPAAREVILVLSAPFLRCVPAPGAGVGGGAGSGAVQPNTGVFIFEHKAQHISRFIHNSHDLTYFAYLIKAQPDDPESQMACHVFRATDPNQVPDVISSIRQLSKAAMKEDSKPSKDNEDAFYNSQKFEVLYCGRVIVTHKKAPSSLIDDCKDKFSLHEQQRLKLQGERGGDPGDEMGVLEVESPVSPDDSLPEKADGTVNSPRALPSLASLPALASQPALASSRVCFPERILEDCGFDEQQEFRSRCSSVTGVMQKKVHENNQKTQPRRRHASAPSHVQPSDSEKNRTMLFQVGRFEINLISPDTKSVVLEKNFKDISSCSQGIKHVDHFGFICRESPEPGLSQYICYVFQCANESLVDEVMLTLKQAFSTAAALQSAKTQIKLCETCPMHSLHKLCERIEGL
Nature of the assay: co-IP; HEK293 cells coexpressing HA-TBC1D4 constructs and 3xFLAG-TBC1D4; lysis in 150 mM NaCl, 1% Triton X-100, 50 mM Tris-HCl pH 8; anti-HA magnetic beads, 30 min at 4 °C; western blot.

In assay [3] the target is full-length TBC1D4 expressed in HEK293 cells (3xFLAG-tagged copy and HA-tagged copy) (mouse) (UniProt Q8BYJ6). The assay is described as above.

Experimental findings from article PMC8131924 are described below.

These are yes or no findings as the source states them, for the method shown. For part of these data: In cells and extracts the contact can be indirect. Some results given as binding are weak or reduced against the parent protein; the word gives no strength. Where a sequence is shown, tags or fusion partners need not be part of it.

B1: recombinant full-length His6-TBC1D4 (nonphosphorylated) (protein, UniProt Q8BYJ6 1-1307)
chain: MESPSCIQDEPFPHPLEPEPSAPAQPGATKPGDKRFRLWYVGGSCLDRRTTLPMLPWLMAEIRRRSQKPDAGGCGAPAAREVILVLSAPFLRCVPAPGAGVGGGAGSGAVQPNTGVFIFEHKAQHISRFIHNSHDLTYFAYLIKAQPDDPESQMACHVFRATDPNQVPDVISSIRQLSKAAMKEDSKPSKDNEDAFYNSQKFEVLYCGRVIVTHKKAPSSLIDDCKDKFSLHEQQRLKLQGERGGDPGDEMGVLEVESPVSPDDSLPEKADGTVNSPRALPSLASLPALASQPALASSRVCFPERILEDCGFDEQQEFRSRCSSVTGVMQKKVHENNQKTQPRRRHASAPSHVQPSDSEKNRTMLFQVGRFEINLISPDTKSVVLEKNFKDISSCSQGIKHVDHFGFICRESPEPGLSQYICYVFQCANESLVDEVMLTLKQAFSTAAALQSAKTQIKLCETCPMHSLHKLCERIEGLYPPRAKLVIQRHLSSLTDNEQADIFERVQKMKPISDQEENELVILHLRQLCEAKQRTHVHIGEGPAIISNSTIPENVTSGGRFKLDVLKNKAKRSLTSSLENIFSRGANRMRGRLGSMDSFERANSLASEKDFSPGDSPPGTPPASPLSSAWHAFPEEDSDSPQFRRRAHTFSHPPSSSRRKLNLQDGKAHGLRSPLLRQSSSEQCSIVPSARRMYKESNSSCSLPSLHTSFSAPSFTAPSFLKSFYQNSGRLSPQYENEIRQDTASESSDGEGRKRTSSTCSNESLNAGGTPVTPRRVSWRQRIFLRVASPVNKSPSAMQQQKDGLDRTELLPLSPLSPTMEEEPLIIFLSGDEDTEKVEEKKKSKELKSLWKKAIHQQILLLRMEKENQKLEEARRDELQSRKVKLDYEEVGTCQKEILIAWDKKLLNCRTKIRCDMEDIHTSLKEGVPKSRRGEIWQFLALQYRLRHRLPNKHQPPDTSYKELLKQLTAQQHAILVDLGRTFPTHPYFSVQLGAGQLSLFNLLKAYSLLDKEVGYCQGISFVAGVLLLHMSEEQAFEMLKFLMYDLGFRKQYRPDMMSLQIQMYQLSRLLHDYHRELYNHLEENEISPSLYAAPWFLTLFASQFPLGFVARVFDIIFLQGTEVIFKVALSLLSSQEALIMECENFENIVEFLKSTLPDMNTTEMEKIITQVFEMDISKQLHAYEVEYHVLQDELLESSYACEDNESLEKLERANNQLKRQNMDLLEKLQVAHAKIQALESNLETLLTRETKMKALIRTLEQDKMAYQKTVEQIRKLLPADALANCELLLKDLTHPTNDKAKAGNKP
With B1, in assay [1], the binding result is “binds”.

B2: full-length TBC1D4 expressed in HEK293 cells (3xFLAG-tagged copy and HA-tagged copy) (protein, UniProt Q8BYJ6 1-1307)
chain: B1 chain
As for B2, the binding entry in assay [2] and in assay [3] was “binds” each time.
